According to article PMC5058708:
These are yes or no findings as the source states them, for the method shown. Binding seen in cells or lysates may run through a third protein. Some entries that bind do so weakly or less than the wild type.

Sequences of proteins named here, by UniProt entry; tags and fusion partners are left off.
UniProt P18266: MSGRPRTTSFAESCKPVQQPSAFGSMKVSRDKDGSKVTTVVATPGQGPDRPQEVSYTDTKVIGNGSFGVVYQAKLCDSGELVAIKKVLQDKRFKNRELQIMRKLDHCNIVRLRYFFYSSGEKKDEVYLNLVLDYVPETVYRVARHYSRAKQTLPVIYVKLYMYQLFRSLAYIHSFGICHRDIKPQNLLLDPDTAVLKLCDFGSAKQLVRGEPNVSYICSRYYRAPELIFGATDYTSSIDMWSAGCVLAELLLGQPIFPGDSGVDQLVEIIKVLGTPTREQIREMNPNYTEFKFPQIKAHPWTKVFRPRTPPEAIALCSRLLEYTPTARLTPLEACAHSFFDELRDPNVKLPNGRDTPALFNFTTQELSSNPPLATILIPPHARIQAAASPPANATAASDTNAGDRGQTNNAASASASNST
UniProt Q07936: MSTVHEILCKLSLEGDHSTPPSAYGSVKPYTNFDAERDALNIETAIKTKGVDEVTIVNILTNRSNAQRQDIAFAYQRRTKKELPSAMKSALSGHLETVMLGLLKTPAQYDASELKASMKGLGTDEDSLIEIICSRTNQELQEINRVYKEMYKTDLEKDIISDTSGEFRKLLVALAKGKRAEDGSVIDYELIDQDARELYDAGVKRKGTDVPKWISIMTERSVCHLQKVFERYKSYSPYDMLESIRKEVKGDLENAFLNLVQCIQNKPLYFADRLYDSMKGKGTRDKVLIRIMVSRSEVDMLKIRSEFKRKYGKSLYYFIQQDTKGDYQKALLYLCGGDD
UniProt P31977: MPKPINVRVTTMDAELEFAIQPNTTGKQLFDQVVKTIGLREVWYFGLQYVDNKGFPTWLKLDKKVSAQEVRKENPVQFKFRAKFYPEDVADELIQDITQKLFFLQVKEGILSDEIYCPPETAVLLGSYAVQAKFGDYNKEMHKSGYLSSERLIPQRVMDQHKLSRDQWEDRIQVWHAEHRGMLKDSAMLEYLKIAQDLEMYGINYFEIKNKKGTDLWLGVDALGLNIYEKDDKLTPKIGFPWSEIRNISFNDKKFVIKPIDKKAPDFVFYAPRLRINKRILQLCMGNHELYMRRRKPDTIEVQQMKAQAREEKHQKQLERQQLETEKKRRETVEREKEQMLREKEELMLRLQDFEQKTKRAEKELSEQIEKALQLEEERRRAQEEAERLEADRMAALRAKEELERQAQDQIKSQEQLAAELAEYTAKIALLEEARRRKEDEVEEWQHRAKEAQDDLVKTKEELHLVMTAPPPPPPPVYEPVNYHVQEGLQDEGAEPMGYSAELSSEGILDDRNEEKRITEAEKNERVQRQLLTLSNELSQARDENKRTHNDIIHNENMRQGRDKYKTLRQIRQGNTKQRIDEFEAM
UniProt M0R702: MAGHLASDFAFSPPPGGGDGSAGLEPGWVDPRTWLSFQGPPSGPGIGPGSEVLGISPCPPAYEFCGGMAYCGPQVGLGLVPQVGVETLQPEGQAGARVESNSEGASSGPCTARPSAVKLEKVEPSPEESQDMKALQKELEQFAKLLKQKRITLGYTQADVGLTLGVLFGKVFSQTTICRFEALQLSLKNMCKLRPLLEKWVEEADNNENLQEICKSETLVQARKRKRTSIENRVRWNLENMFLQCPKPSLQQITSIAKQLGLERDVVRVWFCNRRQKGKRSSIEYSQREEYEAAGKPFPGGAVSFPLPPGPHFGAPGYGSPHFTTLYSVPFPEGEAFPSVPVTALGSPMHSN
UniProt O54857: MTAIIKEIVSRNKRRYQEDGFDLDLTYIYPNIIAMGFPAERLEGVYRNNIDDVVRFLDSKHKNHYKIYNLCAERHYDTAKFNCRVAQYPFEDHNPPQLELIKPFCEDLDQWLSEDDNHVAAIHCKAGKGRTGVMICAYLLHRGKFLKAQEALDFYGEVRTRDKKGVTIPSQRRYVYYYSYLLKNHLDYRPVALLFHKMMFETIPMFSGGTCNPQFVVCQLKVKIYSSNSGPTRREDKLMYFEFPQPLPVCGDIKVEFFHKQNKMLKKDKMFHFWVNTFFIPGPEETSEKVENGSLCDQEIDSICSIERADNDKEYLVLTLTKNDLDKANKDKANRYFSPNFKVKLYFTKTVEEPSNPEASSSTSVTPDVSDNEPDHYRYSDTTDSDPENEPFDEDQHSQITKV
UniProt P61589: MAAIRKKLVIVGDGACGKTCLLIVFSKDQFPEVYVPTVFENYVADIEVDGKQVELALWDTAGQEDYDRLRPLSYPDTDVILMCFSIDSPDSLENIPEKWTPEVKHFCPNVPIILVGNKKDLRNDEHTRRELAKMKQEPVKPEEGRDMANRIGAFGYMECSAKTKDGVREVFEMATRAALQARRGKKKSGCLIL

What was measured:
[1] = target: T1, claudin7 (rat (endogenous in ASML)) (UniProt Q9Z1L1); assay: co-IP; lysates of wt, kd and rescue ASML clones; HEPES buffer, 1% Lubrol, 30 min at 4°C; antibody 1 h at 4°C, ProteinG-Sepharose 1 h; SDS-PAGE and Western blot
T1 sequence (chain, palmitoylated (palmitoylation is prevented by mutating AA184 and AA186)): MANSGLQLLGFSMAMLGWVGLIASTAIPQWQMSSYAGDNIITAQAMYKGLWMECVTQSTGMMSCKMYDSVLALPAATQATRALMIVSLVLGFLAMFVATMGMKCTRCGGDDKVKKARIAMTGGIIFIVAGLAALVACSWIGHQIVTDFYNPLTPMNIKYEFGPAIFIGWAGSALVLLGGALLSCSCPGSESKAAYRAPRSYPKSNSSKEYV

[2] = target: GSK3β (rat (endogenous in ASML)) (UniProt P18266); assay: as above
[3] = target: T2, EpCAM (rat (endogenous in ASML)) (UniProt O55159); assay: co-IP; lysates of ASML^wt and -cld7^mPalm exosomes (1% Lubrol) precipitated with anti-cld7, -EpC, -CD44v6, -Tspan8 or -α6β4; Western blot
T2 sequence: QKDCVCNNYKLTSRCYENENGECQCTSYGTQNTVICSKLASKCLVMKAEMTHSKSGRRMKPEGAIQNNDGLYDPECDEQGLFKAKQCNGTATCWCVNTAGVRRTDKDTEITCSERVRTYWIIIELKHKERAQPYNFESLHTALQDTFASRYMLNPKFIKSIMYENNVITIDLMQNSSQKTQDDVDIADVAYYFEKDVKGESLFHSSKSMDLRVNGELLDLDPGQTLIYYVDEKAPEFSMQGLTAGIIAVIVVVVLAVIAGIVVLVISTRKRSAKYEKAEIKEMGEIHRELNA

[4] = target: AnnII (rat (endogenous in ASML)) (UniProt Q07936); assay: co-IP; lysates of wt, kd and rescue ASML clones; HEPES buffer, 1% Lubrol, 30 min at 4°C; antibody 1 h at 4°C, ProteinG-Sepharose 1 h; SDS-PAGE and Western blot
[5] = target: T2, EpCAM (rat (endogenous in ASML)); assay: as above
[6] = target: T3, Lamp1 (rat (endogenous in ASML)) (UniProt P14562); assay: as above
T3 sequence: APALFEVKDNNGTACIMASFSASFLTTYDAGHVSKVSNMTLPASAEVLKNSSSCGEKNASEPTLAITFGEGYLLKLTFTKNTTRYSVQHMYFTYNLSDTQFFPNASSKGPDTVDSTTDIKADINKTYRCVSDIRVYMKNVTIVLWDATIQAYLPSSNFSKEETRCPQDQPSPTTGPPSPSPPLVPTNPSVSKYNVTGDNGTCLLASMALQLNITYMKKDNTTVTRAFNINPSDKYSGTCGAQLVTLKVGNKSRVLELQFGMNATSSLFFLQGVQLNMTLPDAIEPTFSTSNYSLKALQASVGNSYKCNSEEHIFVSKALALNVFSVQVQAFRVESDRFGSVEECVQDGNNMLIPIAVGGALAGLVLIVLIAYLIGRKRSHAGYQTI

[7] = target: ezrin (rat (endogenous in ASML)) (UniProt P31977); assay: as above

## Oct3/4 (from UniProt M0R702 1-352)
[1]
  binding: no binding

## Pten (from UniProt O54857 1-403) (enzyme)
[2]
  binding: binds weakly

## RhoA (from UniProt P61589 1-193)
[1]
  binding: binds

B1: claudin7 (protein, UniProt Q9Z1L1 1-211)
chain: T1 sequence (chain, palmitoylated (palmitoylation is prevented by mutating AA184 and AA186))
modifications: palmitoylated (palmitoylation is prevented by mutating AA184 and AA186)
[3]
  binding: binds
[4]
  binding: binds
[5]
  binding: binds
[6]
  binding: binds
[7]
  binding: binds
